Reference: US9309240B2, “Pyrazolopyridine compounds, compositions and methods of use” (F. HOFFMANN-LA ROCHE AG, priority 2010, dated 2016)
Where a name gives a salt, the structure may show the parent alone. Some results were stated once for a whole list of compounds, not compound by compound.

Biological target: T1, TYK2 kinase domain (Homo sapiens, UniProt P29597)
T1 construct: The activity of the isolated JAK1, JAK2 or TYK2 kinase domain was measured
T1 sequence (P29597 897-1176 limits assumed): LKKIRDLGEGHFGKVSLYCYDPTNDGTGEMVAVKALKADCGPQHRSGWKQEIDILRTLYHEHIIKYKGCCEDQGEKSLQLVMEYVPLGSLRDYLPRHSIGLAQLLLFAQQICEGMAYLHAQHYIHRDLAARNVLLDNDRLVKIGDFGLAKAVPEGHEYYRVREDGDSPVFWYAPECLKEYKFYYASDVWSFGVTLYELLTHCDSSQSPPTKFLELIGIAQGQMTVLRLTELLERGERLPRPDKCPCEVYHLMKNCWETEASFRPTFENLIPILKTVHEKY
Experiment: JAK1, JAK2 and TYK2 Inhibition Assay Protocol (Example A): TYK2 kinase domain, Caliper LabChip peptide phosphorylation
Format: biochemical
Protocol: The activity of the isolated JAK1, JAK2 or TYK2 kinase domain was measured by monitoring phosphorylation of a peptide derived from JAK3 (Val-Ala-Leu-Val-Asp-Gly-Tyr-Phe-Arg-Leu-Thr-Thr) fluorescently labeled on the N-terminus with 5-carboxyfluorescein using the Caliper LabChip technology (Caliper Life Sciences, Hopkinton, Mass.). To determine the inhibition constants (Ki) of Examples 1-165, compounds were diluted serially in DMSO and added to 50 μL kinase reactions containing 1.5 nM JAK1, 0.2 nM purified JAK2 or 1 nM purified TYK2 enzyme, 100 mM Hepes pH7.2, 0.015% Brij-35, 1.5 uM peptide substrate, 25 uM ATP, 10 mM MgCl2, 4 mM DTT at a final DMSO concentration of 2%. Reactions were incubated at 22° C. in 384-well polypropylene microtiter plates for 30 minutes and then stopped by addition of 25 μL of an EDTA containing solution (100 mM Hepes pH 7.2, 0.015% Brij-35, 150 mM EDTA), resulting in a final EDTA concentration of 50 mM. After termination of the kinase reaction, the proportion of phosphorylated product was determined as a fraction of total peptide substrate using the Caliper LabChip 3000 according to the manufacturer's specifications. Ki values were then determined using the Morrison tight binding model. Morrison, J. F., Biochim. Biophys. Acta. 185:269-296 (1969); William, J. W. and Morrison, J. F., Meth. Enzymol., 63:437-467 (1979).

Ki, < 500 nM:
N#Cc1cc(Cl)c(-n2cc3c(Nc4cc(N)ncn4)nccc3n2)c(Cl)c1 [Example 25, 4-[4-(6-Aminopyrimidin-4-ylamino)-pyrazolo[4,3-c]pyridin-2-yl]-3,5-dichloro-benzonitrile.HCl]
Nc1cc(Nc2ncc(Br)c3nn(-c4c(Cl)cccc4Cl)cc23)ncn1 [Example 41, N-[7-Bromo-2-(2,6-dichlorophenyl)-2H-pyrazolo[4,3-c]pyridin-4-yl]-pyrimidine-4,6-diamine]
Cc1cc(Nc2ncc(F)c3nn(-c4c(F)cccc4C#N)cc23)nc(N)n1 [Example 143, 2-[4-(2-Amino-6-mcthylpyrimidin-4-ylamino)-7-fluoropyrazolo[4,3-c]pyridin-2-yl]-3-fluoro-benzonitrile•HCl]
N#Cc1cccc(Cl)c1-n1cc2c(Nc3ccc(C4CNC4)cn3)ncc(F)c2n1 [Example 98, 2-[4-(5-Azetidin-3-yl-pyridin-2-ylamino)-7-fluoropyrazolo[4,3-c]pyridin-2-yl]-3-chlorobenzonitrile hydrochloride salt]
Cc1cc(Nc2ncc(F)c3nn(-c4c(Cl)cccc4Cl)cc23)ncn1 [Example 35, [2-(2,6-Dichlorophenyl)-7-fluoro-2H-pyrazolo[4,3-c]pyridin-4-yl]-(6-methyl-pyrimidin-4-yl)-amine]
Cc1cc(Nc2ncc(C)c3nn(-c4c(Cl)cccc4Cl)cc23)ncn1 [Example 132, 2-(2,6-dichlorophenyl)-7-methyl-N-(6-methylpyrimidin-4-yl)-2H-pyrazolo-[4,3-c]pyridin-4-amine]
N#Cc1cccc(Cl)c1-n1cc2c(Nc3cc(CO)ncn3)ncc(Cl)c2n1 [Example 153, 3-chloro-2-(7-chloro-4-(6-(hydroxymethyl)pyrimidin-4-ylamino)-2H-pyrazolo[4,3-c]pyridin-2-yl)benzonitrile]
N#Cc1cc(F)cc(Cl)c1-n1cc2c(NC(=O)C3CC3)ncc(F)c2n1 [Example 136, N-(2-(2-chloro-6-cyano-4-fluoro-phenyl)-7-fluoro-2H-pyrazolo[4,3-c]-pyridin-4-yl)cyclopropanecarboxamide]
Cc1nc(NCCO)cc(Nc2ncc(F)c3nn(-c4c(F)cccc4Cl)cc23)n1 [Example 148, 2-{6-[2-(2-Chloro-6-fluorophenyl)-7-fluoro-2H-pyiazolo[4,3-c]pyridin-4-ylamino]-2-methylpyrimidin-4-ylamino}-ethanol•HCl]
Cc1cc(Nc2ncc(F)c3nn(-c4c(Cl)cc(F)cc4C#N)cc23)nc(C)n1 [Example 137, 3-Chloro-2-[4-(2,6-dimethylpyrimidin-4-ylamino)-7-fluoropyrazolo[4,3-c]pyridin-2-yl]-5-fluoro-benzonitrile•HCl]
N#Cc1cc(Cl)c(-n2cc3c(NC(=O)C4CC4)nccc3n2)c(Cl)c1 [Example 69, N-(2-(2,6-dichloro-4-cyanophenyl)-2H-pyrazolo[4,3-c]pyridin-4-yl)cyclopropane-carboxamide]
Cc1cc(Nc2ncc(F)c3nn(-c4c(F)cccc4Cl)cc23)nc(C)n1 [Example 110, [2-(2-Chloro-6-fluorophenyl)-7-fluoro-2H-pyrazolo[4,3-c]pyridin-4-yl]-(2,6-dimethylpyrimidin-4-yl)amine hydrochloride salt]
Cc1nc(NCCO)cc(Nc2ncc(F)c3nn(-c4c(Cl)cc(F)cc4C#N)cc23)n1 [Example 106, 3-Chloro-5-fluoro-2-{7-fluoro-4-[6-(2-hydroxyethylamino)-2-methylpyrimidin-4-ylamino]pyrazolo[4,3-c]pyridin-2-yl}benzonitrile hydrochloride salt]
Cc1cc(Nc2ncc(Cl)c3nn(-c4c(Cl)cccc4Cl)cc23)ncn1 [Example 117, [7-Chloro-2-(2,6-dichlorophenyl)-2H-pyrazolo[4,3-c]pyridin-4-yl]-(6-methylpyrimidin-4-yl)-amine]
